Values of other authors, collected in patent US10870102B2, “Radical generating catalyst, method for producing radical, method for producing oxidation reaction product, drug, and drug for agriculture and livestock” (ACENET INC., priority 2015, dated 2020).
At least one structure is not confirmed: it was looked up by name or label, or the drawing left a doubt.

Details: cited from earlier work

## [O-][Cl+3]([O-])([O-])[O-].[O-][Cl+3]([O-])([O-])[O-].[Sr+2] [strontium perchlorate]
  catalyst rate constant: 0.10 M^−2s^−1
